Experimental data reported in US8476280B2, “Compositions and methods for combating lower urinary tract dysfunctions with delta opioid receptor agonists” (Versi Group, LLC, priority 2002, dated 2013).
Some of these results come from one statement about several compounds together.

Each molecule was assayed on healthy conscious rats (assay: Cystometric parameters in healthy conscious rats). Details: intravenous administration, recorded 90 minutes after injection.
Type: in vivo, rat
Experimental: Male rats weighing 200 to 250 grams were used. The rats were housed with free access to food and maintained on forced 12 hours alternating light-dark cycle at 22-24° C. for at least one week, except during performance of the experiment.
The rats were anesthetized with pentobarbital, 65 mg/kg i.p. and placed in a supine position. An approximately 10 mm long midline incision was made in the shaved and cleaned abdominal wall. The urinary bladder was freed from adhering tissues, emptied and then cannulated, via an incision at the dome with a polyethylene cannula (PE50), which was permanently sutured in place. The cannula was exteriorized through a subcutaneous tunnel in the retroscapular area, where it was connected with a plastic adapter to avoid the risk of removal by the rats. For intravenous (i.v.) injection of test compounds, a polyethylene tubing (PE50) was inserted into the jugular vein and exteriorized in the retroscapular area. Since cystometrographic parameters have been reported to be influenced by the time elapsed after catheter implantation, the rats were treated with 1 mg/kg Penicilline G, intramuscularly, to prevent infection and allowed to rest 3 days after implantation and before testing commenced.
For oral administration of test compounds, a polyethylene tube (PE50) was inserted into the stomach and was permanently sutured in place. The cannula was exteriorized through a subcutaneous tunnel in the retroscapular area, where it was connected with a plastic adapter to avoid the risk of removal by the rats.
On the day of the experiments, the rats were placed in Bollman's cages, the free tip of the bladder catheter was connected through a T-shaped tube to a pressure transducer (Grass PT300 or Gould P23) to record bladder pressure and to a peristaltic pump for continuous infusion, at a constant rate of […] of saline solution into the urinary bladder. The intraluminal pressure signal during infusion was continuously recorded. Two urodynamic parameters were evaluated: micturition pressure and interval between micturition that equates to volume capacity before detrusor contraction occurs (decrease in frequency of contractions). Micturition pressure is defined as the maximal intravesical pressure induced by the contraction of detrusor during micturition. Data was calculated as the mean of testing results for several animals at each dosage. The drug effects were expressed as a percent relative to activity of the control data, which was set at 100%.
Infusion was commenced with saline solution to determine activity in rats without test compounds to be used as the control baseline. Saline solution infusion was interrupted and the test compounds were administered. At time points 90 minutes after intravenous administration and 120 minutes after oral drug administration, cystometrograms were recorded in each animal and the mean values of the recorded cystometrographic parameters were calculated.

Compound	frequency of bladder contractions (interval between micturition)
CCN(CC)C(=O)c1ccc(C(c2ccccc2)N2C[C@@H](C)N(Cc3cccc(F)c3)C[C@@H]2C)cc1 (stereo partly drawn) [Compound 1, 4-((alpha-S)-alpha-((2S,5R)-2,5-Dimethyl-4-(3-fluorobenzyl)-1-piperazinyl)benzyl)-N,N-diethylbenzamide]	a decrease in the frequency of the bladder contractions
CCN(CC)C(=O)c1ccc(C(c2ccccc2)N2C[C@@H](C)N(Cc3ccc(F)cc3)C[C@@H]2C)cc1 (stereo partly drawn) [Compound 2, 4-((alpha-S)-alpha-((2S,5R)-2,5-Dimethyl-4-(4-fluorobenzyl)-1-piperazinyl)benzyl)-N,N-diethylbenzamide]	a decrease in the frequency of the bladder contractions
Cc1nc(CN2C[C@H](C)N(C(c3cccc(O)c3)c3cccc(C(=O)N(C)c4cccc(F)c4)c3)C[C@H]2C)cs1 (stereo partly drawn) [Compound 5, 3-((alpha-R)-alpha-((2S,5R)-2,5-Dimethyl-4-(2-methyl-4-thiazolylmethyl)-1-piperazinyl)-3-hydroxybenzyl)-N-(3-fluorophenyl)-N-methylbenzamide]	a decrease in the frequency of the bladder contractions
C[C@@H]1CN(C(c2cccc(O)c2)c2cccc(C(=O)N(C)c3cccc(F)c3)c2)[C@@H](C)CN1CCCF (stereo partly drawn) [Compound 6, 3-((alpha-R)-alpha-((2S,5R)-2,5-Dimethyl-4-(3-fluoropropyl)-1-piperazinyl)-3-hydroxybenzyl)-N-(3-fluorophenyl)-N-methylbenzamide]	a decrease in the frequency of the bladder contractions
C=CCN1C[C@H](C)N([C@@H](c2cccc(O)c2)c2ccccc2C)C[C@H]1C [Compound 7, 3-((S)-((2S,5R)-4-Allyl-2,5-dimethyl-1-piperazinyl)(2-methylphenyl)methyl)phenol]	a decrease in the frequency of the bladder contractions
CCN(CC)C(=O)c1ccc(C(c2ccccc2)N2C[C@@H](C)N(Cc3ccc(Br)cc3)C[C@@H]2C)cc1 (stereo partly drawn) [Compound 8, 4-((alpha-S)-alpha-((2S,5R)-4-(4-Bromobenzyl)-2,5-dimethyl-1-piperazinyl)benzyl)-N,N-diethylbenzamide]	a decrease in the frequency of the bladder contractions
Cc1ccccc1[C@H](c1cccc(O)c1)N1C[C@@H](C)NC[C@@H]1C [Compound 10, 3-((S)-((2S,5R)-2,5-Dimethyl-1-piperazinyl)(2-methylphenyl)methyl)phenol]	a decrease in the frequency of the bladder contractions
